Results as given in patent US20260207704A1 (priority 2022, published 2026).

Assay: general procedure: Fmoc solid-phase peptide synthesis; Rink amide MBHA resin (0.51 mmol/g)
Settings: whole synthesis, UV at, e.g., 210-400 nm, scale of the general procedure 13 mmol

In the case of “PEPTIDE1{[Ac].[PL3].D.[Npg].[B5].D.[3COOHF].[Aib].A.F.[TriAzLys].[PyrS2].[3Thi].[BztA].[sAla].A.[am]}$PEPTIDE1,PEPTIDE1,11:R3-15:R3|PEPTIDE1,PEPTIDE1,2:R3-5:R3|PEPTIDE1,PEPTIDE1,5:R4-12:R3$$$V2.0”, the “crude LC-MS purity” value was 82%.

HELM strings list residues between dots; [ac] is acetyl, [am] amide, other brackets name non-standard units.
